These are yes or no findings as the source states them, for the method shown. Some binding calls cover weakened binding; strength is not graded here.
Tests used:
[1] = molecular target: GRP78 (glucose-regulated protein 78), StressMarq (UniProt P11021); test: GRP78 ELISA, direct and competition
[2] = molecular target: GRP78 (glucose-regulated protein 78), StressMarq (UniProt P11021); test: ELISA, GRP78 coated on 96-well plate, biotinylated kringle, Neutra-avidin-HRP
[3] = molecular target: ROR1 (receptor tyrosine kinase-like orphan receptor 1) (human) (UniProt Q01973); test: GRP78 pull down experiments
[4] = molecular target: ROR1 (receptor tyrosine kinase-like orphan receptor 1) (human) (UniProt Q01973); test: pull-down from lysed dendritic cells, Western blot with an ROR1 antibody
[5] = molecular target: ROR1 (receptor tyrosine kinase-like orphan receptor 1) (human) (UniProt Q01973); test: GRP78 binding and crosslinking pull down against the cell surface proteome of D54 glioma cells and dendritic cells
[6] = molecular target: ROR1 (receptor tyrosine kinase-like orphan receptor 1) (human) (UniProt Q01973); test: U87 glioma cells, two-colour antibody staining (co-localisation), FIG. 17
[7] = molecular target: ROR1 (receptor tyrosine kinase-like orphan receptor 1) (human) (UniProt Q01973); test: GRP78 added to U87 glioma cells, fixed, two-colour antibody staining (co-localisation)
[8] = molecular target: ROR1 (receptor tyrosine kinase-like orphan receptor 1) (human) (UniProt Q01973); test: siRNA knock down, commercial ROR1 antibodies and recombinant ROR1 kringle domain with glioma cells

The chains behind the UniProt entries cited, without tags or fusion partners. Where a name states a change or a piece, a line headed by the entry shows the natural chain unless it says otherwise. Residues count along the entry.
UniProt P11021, residues 19-654: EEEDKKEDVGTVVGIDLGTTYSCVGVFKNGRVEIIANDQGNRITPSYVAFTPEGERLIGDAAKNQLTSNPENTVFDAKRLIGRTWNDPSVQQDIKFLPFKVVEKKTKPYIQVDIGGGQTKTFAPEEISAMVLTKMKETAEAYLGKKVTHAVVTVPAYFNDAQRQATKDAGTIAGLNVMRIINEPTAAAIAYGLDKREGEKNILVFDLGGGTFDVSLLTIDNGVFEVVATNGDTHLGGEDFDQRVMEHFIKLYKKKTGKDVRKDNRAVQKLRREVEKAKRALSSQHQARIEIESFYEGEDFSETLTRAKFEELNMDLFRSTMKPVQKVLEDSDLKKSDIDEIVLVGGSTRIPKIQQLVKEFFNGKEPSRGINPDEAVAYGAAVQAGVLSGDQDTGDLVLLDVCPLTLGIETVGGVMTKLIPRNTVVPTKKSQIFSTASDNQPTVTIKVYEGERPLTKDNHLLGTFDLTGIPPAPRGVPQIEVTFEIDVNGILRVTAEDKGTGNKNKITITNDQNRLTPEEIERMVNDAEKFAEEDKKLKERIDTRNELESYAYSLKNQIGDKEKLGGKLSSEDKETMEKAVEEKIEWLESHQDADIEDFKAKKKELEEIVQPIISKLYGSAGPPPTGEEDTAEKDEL
UniProt Q01973, residues 30-937: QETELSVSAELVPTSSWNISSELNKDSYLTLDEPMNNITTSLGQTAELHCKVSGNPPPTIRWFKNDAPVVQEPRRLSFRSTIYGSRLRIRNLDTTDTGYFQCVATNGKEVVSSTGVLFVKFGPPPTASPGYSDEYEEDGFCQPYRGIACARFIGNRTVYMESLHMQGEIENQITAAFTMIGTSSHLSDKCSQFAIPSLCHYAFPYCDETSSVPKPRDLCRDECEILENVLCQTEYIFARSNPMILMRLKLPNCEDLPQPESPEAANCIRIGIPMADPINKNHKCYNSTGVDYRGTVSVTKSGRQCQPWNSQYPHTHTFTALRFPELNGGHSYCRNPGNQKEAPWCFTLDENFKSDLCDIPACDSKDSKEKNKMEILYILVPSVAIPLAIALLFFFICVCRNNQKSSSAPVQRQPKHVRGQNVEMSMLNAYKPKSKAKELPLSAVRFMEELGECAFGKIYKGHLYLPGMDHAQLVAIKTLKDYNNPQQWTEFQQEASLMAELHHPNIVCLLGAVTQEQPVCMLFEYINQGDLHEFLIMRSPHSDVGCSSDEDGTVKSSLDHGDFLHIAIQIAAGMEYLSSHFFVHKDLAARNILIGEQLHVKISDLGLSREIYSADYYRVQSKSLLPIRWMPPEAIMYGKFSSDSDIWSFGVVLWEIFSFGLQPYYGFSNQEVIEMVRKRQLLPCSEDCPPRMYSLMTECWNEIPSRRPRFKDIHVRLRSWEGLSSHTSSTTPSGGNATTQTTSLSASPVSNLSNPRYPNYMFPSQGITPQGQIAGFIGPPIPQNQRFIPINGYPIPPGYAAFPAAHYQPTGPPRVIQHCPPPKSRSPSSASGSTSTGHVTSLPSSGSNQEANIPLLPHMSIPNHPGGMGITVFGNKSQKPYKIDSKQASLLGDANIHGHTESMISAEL
UniProt P00747: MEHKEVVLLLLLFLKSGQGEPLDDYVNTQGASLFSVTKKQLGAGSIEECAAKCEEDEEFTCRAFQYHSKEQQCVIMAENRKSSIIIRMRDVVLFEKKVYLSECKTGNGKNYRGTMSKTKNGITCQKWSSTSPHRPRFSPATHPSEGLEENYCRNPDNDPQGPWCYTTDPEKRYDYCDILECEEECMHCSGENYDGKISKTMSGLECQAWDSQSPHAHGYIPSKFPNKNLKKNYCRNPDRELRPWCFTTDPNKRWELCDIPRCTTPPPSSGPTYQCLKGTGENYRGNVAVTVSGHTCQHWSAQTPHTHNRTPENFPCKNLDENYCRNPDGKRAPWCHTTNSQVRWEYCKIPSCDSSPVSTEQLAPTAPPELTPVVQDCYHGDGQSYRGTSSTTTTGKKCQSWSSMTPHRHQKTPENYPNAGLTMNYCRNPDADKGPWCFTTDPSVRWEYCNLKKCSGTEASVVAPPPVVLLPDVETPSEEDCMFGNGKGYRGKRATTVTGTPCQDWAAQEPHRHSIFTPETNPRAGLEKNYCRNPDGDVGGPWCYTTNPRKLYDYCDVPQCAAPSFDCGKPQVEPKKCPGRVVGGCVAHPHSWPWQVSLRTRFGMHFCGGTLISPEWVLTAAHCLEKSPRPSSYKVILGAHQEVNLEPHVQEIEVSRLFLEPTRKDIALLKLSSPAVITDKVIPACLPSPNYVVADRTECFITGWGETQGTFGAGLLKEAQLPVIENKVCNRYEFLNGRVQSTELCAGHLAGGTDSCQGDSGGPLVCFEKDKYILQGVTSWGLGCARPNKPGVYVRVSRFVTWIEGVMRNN

How did the binding [1] turn out when “K5(3-89 Active Zone)frag SEQ ID NO:1 (from UniProt P00747 477-563)” was run?
Its binding is “binds”.

How did the binding [2] turn out when “K5-biotin complex (K5(3-89 Active Zone)frag SEQ ID NO:1-biotin complex) (from UniProt P00747 477-563)” was run?
The binding was “binds”.

Which binding [3] does the source give for “GRP78-Biotin (GRP78 (StressMarq) labeled with Biotin) (from UniProt P11021 19-654)” here?
The binding was “binds”.

What about the binding [4] of the same substance?
Its binding is “binds”.

What about the binding [5] of the same substance?
Its binding is “binds”.

What does the source list for “GRP78 (glucose-regulated protein 78), StressMarq (from UniProt P11021 19-654)”?
binding [6]: binds; binding [7]: binds; binding [8]: binds

For “Kr1(1-91 Active Zone)frag SEQ ID NO:19 (from UniProt Q01973 308-396)”, which binding [1] is on record?
Its binding is “binds”.

How did the binding [2] turn out when “Kr1-biotin complex (Kr1(1-91 Active Zone)frag SEQ ID NO:19-biotin complex) (from UniProt Q01973 308-396)” was run?
The binding was “binds”.
